Experimental data: publication PMC3814369
No constants are given. Whether binding was seen depends on the method and setting. Some results given as binding are weak or reduced against the parent protein; the word gives no strength.

Sequences of proteins named here, by UniProt entry; tags and fusion partners are left off.
UniProt P38633: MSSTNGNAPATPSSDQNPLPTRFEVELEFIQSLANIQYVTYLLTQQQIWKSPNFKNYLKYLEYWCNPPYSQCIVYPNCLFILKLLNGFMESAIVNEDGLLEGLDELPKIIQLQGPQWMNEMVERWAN
UniProt Q08278: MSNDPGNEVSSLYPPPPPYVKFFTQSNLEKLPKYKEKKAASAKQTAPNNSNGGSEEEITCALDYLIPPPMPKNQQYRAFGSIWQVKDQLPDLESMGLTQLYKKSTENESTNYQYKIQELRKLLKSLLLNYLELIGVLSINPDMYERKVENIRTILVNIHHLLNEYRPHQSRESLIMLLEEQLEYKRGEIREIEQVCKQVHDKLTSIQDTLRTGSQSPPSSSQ
UniProt Q06213: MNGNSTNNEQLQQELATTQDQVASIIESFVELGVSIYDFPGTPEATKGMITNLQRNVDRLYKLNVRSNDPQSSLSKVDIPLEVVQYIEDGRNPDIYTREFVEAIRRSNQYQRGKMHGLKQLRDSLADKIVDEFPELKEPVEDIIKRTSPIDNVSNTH
UniProt P47822: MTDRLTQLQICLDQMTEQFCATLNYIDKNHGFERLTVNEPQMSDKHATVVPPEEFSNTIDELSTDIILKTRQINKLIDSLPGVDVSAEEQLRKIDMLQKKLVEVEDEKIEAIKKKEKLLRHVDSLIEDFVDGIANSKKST
UniProt Q12343: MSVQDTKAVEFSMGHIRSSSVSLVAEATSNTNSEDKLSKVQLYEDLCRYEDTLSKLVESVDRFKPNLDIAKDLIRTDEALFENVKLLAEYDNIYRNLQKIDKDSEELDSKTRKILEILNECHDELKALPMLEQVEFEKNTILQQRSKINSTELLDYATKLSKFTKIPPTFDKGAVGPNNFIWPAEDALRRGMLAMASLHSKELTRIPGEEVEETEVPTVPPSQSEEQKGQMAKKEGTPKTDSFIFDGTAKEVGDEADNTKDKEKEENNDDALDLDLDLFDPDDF

Key:
[1] = biological target: Med31 (Soh1) (S. cerevisiae) (UniProt P38633); assay: co-purification (Ni-NTA affinity, anion exchange, size exclusion); six subunits co-expressed in E. coli from a single plasmid; complex captured by the deca-histidine tag on Med31 on Ni-NTA agarose (50 mM Tris pH 8.0, 150 mM NaCl, 5 mM DTT), then HiTrap Q and Superdex 200; subunits seen by SDS-PAGE
[2] = biological target: Med7 (S. cerevisiae) (UniProt Q08278); assay: cross-linking; purified 6-subunit middle module, 0.5 mg/ml in 1x PBS, 2 mM DTT; 0.7 mM isotopically coded CBDPS, 30 min at 30°C; trypsin and/or GluC digest, avidin enrichment, LC-MS/MS (lysine-lysine cross-links); both purified

Row | Substance | binding [1] | binding [2]
1 | Med7 (from UniProt Q08278 1-222) | binds | 
2 | Med10 (Nut2) (from UniProt Q06213 1-157) | binds | binds
3 | Med21 (Srb7) (from UniProt P47822 1-140) | binds | binds
4 | Med4 (from UniProt Q12343 1-284) | binds | 
